Assay results from article PMC5025085.
Results are given in words; binding and its absence hold for the method and conditions named. In cells and extracts the contact can be indirect. Some entries that bind do so weakly or less than the wild type. One block for each substance: values may come before it.

By UniProt entry, the sequences of proteins in these tests, tags left out. Where a name states a change or a piece, a line headed by the entry shows the natural chain unless it says otherwise. Residues count along the entry.
UniProt P25942, residues 21-277: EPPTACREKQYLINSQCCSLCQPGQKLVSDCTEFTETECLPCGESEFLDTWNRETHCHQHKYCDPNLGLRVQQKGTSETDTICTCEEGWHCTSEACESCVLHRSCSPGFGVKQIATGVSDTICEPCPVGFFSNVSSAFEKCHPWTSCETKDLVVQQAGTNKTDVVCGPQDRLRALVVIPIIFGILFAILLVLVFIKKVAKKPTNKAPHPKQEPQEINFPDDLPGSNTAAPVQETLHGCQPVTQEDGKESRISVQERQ
UniProt P16473, residues 21-764: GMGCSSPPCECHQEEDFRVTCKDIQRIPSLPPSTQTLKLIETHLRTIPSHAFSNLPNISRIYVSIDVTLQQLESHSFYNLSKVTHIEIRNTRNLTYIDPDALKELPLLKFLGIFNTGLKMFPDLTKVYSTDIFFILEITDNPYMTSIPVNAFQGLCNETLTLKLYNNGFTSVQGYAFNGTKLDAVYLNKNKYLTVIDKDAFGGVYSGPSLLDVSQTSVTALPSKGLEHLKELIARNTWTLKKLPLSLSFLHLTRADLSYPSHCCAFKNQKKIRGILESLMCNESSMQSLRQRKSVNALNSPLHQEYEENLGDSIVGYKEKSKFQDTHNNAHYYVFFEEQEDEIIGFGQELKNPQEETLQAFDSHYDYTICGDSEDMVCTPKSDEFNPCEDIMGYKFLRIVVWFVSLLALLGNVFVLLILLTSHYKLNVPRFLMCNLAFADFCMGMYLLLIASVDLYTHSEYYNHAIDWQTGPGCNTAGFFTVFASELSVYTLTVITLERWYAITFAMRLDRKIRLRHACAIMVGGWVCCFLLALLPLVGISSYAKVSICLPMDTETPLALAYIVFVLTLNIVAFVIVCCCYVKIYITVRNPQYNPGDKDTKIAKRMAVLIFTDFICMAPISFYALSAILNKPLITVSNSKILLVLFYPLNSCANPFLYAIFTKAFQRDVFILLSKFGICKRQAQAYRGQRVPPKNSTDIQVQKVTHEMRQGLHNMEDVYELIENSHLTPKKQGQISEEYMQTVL
UniProt P08069: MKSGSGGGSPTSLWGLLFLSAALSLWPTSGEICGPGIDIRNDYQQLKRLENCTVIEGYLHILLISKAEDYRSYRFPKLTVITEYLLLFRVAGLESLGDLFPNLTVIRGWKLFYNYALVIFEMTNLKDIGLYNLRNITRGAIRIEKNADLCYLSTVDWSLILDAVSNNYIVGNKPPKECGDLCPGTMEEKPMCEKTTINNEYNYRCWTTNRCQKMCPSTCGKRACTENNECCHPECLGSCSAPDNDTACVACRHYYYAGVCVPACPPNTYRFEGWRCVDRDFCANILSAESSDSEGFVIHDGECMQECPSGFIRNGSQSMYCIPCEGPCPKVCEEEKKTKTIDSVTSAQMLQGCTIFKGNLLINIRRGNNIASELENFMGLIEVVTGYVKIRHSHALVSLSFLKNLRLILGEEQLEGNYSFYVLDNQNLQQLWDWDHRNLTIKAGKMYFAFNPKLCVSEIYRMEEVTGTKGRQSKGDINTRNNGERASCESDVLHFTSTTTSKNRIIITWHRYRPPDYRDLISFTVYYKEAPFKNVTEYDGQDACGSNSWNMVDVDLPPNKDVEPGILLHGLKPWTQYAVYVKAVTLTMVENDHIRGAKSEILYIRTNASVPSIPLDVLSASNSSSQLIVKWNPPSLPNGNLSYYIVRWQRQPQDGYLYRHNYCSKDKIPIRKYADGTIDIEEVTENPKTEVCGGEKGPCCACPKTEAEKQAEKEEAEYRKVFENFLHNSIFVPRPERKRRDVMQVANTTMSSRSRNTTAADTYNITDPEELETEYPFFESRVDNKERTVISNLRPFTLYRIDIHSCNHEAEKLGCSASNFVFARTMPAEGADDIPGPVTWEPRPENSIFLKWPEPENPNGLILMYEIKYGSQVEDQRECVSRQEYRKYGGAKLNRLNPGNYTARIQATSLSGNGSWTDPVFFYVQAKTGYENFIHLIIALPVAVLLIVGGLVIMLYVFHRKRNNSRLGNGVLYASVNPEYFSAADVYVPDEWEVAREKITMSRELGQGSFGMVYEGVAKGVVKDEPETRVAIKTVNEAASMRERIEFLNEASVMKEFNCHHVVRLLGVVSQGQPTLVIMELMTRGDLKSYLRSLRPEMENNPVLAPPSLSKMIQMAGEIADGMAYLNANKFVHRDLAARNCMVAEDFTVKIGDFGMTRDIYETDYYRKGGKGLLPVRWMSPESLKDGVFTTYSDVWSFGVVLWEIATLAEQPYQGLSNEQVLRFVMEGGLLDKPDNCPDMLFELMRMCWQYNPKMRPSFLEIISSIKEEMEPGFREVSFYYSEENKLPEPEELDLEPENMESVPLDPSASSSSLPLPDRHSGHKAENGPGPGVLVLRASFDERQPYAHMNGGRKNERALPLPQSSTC

Legend:
[1] = target: CD40 (human (endogenous in fibrocytes)) (UniProt P25942); test: co-IP; pulldown assays with antibodies against CD40 and the α and β subunits of IGF-1R; told only in the discussion, no data shown, cells not given
[2] = target: TSH receptor (human (endogenous in fibrocytes)) (UniProt P16473); test: co-IP; RIPA extract of cultured fibrocytes (approx. 0.5 mg protein) incubated at 4 °C with protein A agarose beads coupled with anti-CD40 or anti-TSHR antibody; Western blot for TSHR and CD40
[3] = target: CD40 (human (endogenous in fibrocytes)) (UniProt P25942); test: as above

binding [1]: no binding
Substance: insulin-like growth factor 1 receptor (from UniProt P08069 31-736; P08069 741-1367)

binding [2]: binds
Substance: CD40 (from UniProt P25942 21-277) (receptor)

binding [3]: binds
Substance: TSH receptor (from UniProt P16473 21-764)
